Like-named read-outs stand apart in the source and are kept apart here. Results are given in words; binding and its absence hold for the method and conditions named. Binding seen in cells or lysates may run through a third protein. A yes stands for co-enrichment or nearness to the bait. Other partners may have been found.

Amino acid sequences for entries named in this document (tags omitted).
UniProt P15311: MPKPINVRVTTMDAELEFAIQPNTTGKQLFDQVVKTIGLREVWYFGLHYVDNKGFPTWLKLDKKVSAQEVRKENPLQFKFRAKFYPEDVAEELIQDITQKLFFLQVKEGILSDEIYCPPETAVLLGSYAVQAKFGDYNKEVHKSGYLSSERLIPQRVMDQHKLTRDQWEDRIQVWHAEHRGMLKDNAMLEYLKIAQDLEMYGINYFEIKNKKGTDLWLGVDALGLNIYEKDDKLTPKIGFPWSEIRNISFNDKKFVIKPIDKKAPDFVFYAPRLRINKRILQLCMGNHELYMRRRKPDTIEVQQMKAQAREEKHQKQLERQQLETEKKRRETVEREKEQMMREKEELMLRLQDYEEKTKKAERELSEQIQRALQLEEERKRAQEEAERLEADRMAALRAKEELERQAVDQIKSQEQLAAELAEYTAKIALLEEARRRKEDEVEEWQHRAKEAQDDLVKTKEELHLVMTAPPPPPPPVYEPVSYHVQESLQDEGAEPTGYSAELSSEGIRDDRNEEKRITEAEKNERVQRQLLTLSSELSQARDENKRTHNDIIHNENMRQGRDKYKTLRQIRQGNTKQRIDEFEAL
UniProt O88543: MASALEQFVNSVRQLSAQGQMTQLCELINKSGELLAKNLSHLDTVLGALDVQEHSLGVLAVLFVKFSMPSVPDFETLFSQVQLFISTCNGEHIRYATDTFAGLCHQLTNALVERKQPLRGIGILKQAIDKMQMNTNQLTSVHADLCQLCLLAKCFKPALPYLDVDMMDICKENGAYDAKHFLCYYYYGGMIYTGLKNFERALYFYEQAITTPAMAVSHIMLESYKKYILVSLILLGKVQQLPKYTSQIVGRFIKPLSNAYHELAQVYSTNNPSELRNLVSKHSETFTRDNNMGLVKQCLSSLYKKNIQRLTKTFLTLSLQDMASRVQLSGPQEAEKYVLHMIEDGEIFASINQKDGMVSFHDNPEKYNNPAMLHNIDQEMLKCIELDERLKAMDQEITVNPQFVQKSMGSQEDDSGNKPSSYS
UniProt P35569: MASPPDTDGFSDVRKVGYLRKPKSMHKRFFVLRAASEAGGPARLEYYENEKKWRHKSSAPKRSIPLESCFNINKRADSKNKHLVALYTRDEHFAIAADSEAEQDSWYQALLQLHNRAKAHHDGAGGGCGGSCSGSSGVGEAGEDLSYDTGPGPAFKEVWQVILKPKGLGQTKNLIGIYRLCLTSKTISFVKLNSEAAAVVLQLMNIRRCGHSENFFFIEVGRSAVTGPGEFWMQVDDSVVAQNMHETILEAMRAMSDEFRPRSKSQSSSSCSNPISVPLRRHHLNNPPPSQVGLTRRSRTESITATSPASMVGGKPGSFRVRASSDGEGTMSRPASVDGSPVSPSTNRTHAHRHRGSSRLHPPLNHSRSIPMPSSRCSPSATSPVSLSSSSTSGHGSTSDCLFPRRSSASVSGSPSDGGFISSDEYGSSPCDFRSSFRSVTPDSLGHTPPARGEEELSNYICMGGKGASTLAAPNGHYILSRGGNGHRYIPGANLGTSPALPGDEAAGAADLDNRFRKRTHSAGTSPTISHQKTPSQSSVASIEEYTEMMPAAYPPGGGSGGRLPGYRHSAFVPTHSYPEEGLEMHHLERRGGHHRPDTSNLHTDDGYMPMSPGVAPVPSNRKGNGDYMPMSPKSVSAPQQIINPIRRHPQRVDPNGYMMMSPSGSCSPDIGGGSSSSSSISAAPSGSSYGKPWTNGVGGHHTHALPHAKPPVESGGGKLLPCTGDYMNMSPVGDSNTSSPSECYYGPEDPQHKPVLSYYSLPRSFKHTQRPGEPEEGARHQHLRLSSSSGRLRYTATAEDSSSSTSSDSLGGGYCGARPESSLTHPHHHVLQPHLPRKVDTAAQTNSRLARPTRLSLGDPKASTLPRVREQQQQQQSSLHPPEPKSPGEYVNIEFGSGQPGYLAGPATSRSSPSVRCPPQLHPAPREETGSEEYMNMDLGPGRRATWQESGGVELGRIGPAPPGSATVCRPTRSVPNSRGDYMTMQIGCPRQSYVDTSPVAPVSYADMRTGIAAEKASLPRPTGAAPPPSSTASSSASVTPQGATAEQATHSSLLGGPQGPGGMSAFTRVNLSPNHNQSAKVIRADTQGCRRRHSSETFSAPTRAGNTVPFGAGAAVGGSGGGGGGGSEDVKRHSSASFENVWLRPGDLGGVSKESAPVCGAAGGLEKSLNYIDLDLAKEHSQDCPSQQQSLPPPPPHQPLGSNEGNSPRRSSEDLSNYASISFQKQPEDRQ
UniProt Q8CFI0: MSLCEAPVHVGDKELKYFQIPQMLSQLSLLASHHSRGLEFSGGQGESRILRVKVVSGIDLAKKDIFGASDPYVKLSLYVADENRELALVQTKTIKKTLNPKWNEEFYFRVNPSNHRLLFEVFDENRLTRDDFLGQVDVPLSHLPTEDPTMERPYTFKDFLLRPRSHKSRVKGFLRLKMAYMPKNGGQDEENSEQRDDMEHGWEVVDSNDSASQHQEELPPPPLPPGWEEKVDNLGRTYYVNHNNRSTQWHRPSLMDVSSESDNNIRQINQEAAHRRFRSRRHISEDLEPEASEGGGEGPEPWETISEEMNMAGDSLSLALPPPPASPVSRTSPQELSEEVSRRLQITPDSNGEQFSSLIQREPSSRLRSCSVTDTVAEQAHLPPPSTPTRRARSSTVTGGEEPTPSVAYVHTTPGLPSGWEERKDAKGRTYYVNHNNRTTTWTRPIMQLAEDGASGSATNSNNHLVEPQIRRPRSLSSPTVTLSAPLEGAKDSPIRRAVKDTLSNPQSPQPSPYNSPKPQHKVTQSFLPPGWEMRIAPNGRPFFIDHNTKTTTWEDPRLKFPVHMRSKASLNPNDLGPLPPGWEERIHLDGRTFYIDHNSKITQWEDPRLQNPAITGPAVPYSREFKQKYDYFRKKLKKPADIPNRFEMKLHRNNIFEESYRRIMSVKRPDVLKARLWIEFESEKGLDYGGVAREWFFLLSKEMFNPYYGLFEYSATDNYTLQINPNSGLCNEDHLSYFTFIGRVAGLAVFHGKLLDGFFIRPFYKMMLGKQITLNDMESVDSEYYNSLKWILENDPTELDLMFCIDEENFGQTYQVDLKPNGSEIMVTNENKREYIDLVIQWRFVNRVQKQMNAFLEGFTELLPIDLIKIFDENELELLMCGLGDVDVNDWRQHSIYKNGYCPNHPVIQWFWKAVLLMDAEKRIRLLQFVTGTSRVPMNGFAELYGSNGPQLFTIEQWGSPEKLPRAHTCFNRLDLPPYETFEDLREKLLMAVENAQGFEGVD

The values that follow come from paper doi:10.1101/2023.04.09.536178.

For experiment [1], the target named is Astro-Ezrin-BioID (Ezrin WT-BioID2-HA) (UniProt P15311). Nature of the experiment: proximity labelling; in vivo BioID: AAV Astro-Ezrin-BioID against Astro-Cyto-BioID control in cortical astrocytes of WT and LRRK2 G2019S ki/ki mice, biotin at P18-P20, cortices at P21; streptavidin agarose purification, LC-MS/MS.
Experiment [2] has the same target. The description is as above. This is another data set of the same source.

As to Cops3 (from UniProt O88543 1-423), the binding result in experiment [1] is recorded as “binds”.
Same read-out and setting: then Irs1 (from UniProt P35569 1-1233), with “binds”.
Nedd4l (from UniProt Q8CFI0 1-1004): the binding entry in experiment [1] is “binds”.

B1: Rala (protein, UniProt P63321 1-206)
chain: MAANKPKGQNSLALHKVIMVGSGGVGKSALTLQFMYDEFVEDYEPTKADSYRKKVVLDGEEVQIDILDTAGQEDYAAIRDNYFRSGEGFLCVFSITEMESFAATADFREQILRVKEDENVPFLLVGNKSDLEDKRQVSVEEAKNRADQWNVNYVETSAKTRANVDKVFFDLMREIRARKMEDSKEKNGKKKRKSLAKRIRERCCIL
Take B1: the binding entry in experiment [2] is “binds”.

B2: Anks1a (protein, UniProt P59672 1-1150)
chain: MGKEQELLEAARTGHLPAVEKLLSGKRLSSGFGGGGGGSGSGGGSGGGGLGSSSHPLSSLLSMWRGPNVNCVDSTGYTPLHHAALNGHRDVVEVLLRNDALTNVADSKGCYPLHLAAWKGDAQIVRLLIQQGPSHTRVNEQNALEIRELKKYGPFDPYINAKNNDNETALHCAAQYGHTEVVKALLEELTDPTMRNNKFETPLDLAALYGRLEVVKLLLGAHPNLLSCSTRKHTPLHLAARNGHKAVVQVLLDAGMDSNYQTEMGSALHEAALFGKTDVVQILLAAGIDVNIKDNRGLTALDTVRDLPSQKSQQIAALIEDHMTGKRSVKEVDRTSTAQLPLLSNTDAIAPMSQGSMEKTVTELILHFDTHADEEGPYEALYNAVSCHSLDSTASGRSSDRDSMNKEAEATGTRAAGVRPRERPPPPAKPPPDEEEEERVDKKYFPLAASEGLAVRPRIQSSAPQEEEEHPYELLLTAETKKLGTTDGRTEDHRQSGSGRSQDSVEGQDGQVPEQFSGLLHGSSPVCEVGQDPFQLLTAPSQSHPESSQQDACHEASMQLEEPGVQGTEPPQPGVPDQSKRVGLPAGLTALASRTYLDALTHTVPLRPAGAEEEDQSGPRSRAPPTSKPKAELKLSRSLSKSDSDLLTCSPTEDATMGSRSESLSNCSIGKKRLEKSPSFASEWDEIEKIMSSIGEGIDFSQEQQKISGSRTLEQSVGEWLESIGLQQYESKLLLNGFDDVRFLGSNVMEEQDLREIGISDPQHRRKLLQAARSLPKVKALGYDGVSPTSVPSWLDSLGLQDYVHSFLSSGYSSIDTVKNLWELELVNVLKVHLLGHRKRIIASLADRPYEEPPQKPPRFSQLRCQDLISQTSSPLSQNDSCTGRSADLLLPSADTSRRRHDSLPDPGTASRADRFRVQEEPSETKLTLRPPSLAAPYAPVQSWQHQPEKLIFESCGYEANYLGSMLIKDLRGTESTQDACAKMRKSTEHMKKIPTIILSITYKGVKFIDASNKNVIAEHEIRNISCAAQDPEDLCTFAYITKDLQTSHHYCHVFSTVDVNLTYEIILTLGQAFEVAYQLALQAQKSRTMAASAASMIETKSSKPVPKPRVGMRKSALEPPDSDQEAPSHASVSWIVDPKPDSKRSLSTN
Consider B2, for which the binding entry in experiment [2] is on record as “binds”.

B3: Myo1e (protein, UniProt E9Q634 1-1107)
chain: MGSKGAYRYHWQSHNVKHSGVDDMVLLSKITESSIVENLKKRYMDDYIFTYIGSVLISVNPFKQMPYFGEKEVEMYQGAAQYENPPHIYALADSMYRNMIIDRENQCVIISGESGAGKTVAAKYIMSYVSRVSGGGPKVQHVKDIILQSNPLLEAFGNAKTVRNNNSSRFGKYFEIQFSPGGEPDGGKISNFLLEKSRVVMRNPGERSFHIFYQLIEGASPEQKQSLGITSMDYYYYLSLSGSYKVDDIDDKRDFQETLHAMNVIGIFSEEQTLVLQIVAGILHLGNISFKEVGNYAAVESEEFLAFPAYLLGINQDRLKEKLTSRQMDSKWGGKSESIHVTLNVEQACYTRDALAKALHARVFDFLVDSINKAMEKDHEEYNIGVLDIYGFEIFQKNGFEQFCINFVNEKLQQIFIELTLKAEQEEYVQEGIRWTPIEYFNNKIVCDLIESKVNPPGIMSILDDVCATMHAVGEGADQTLLQKLQMQIGSHEHFNSWNQGFIIHHYAGKVSYDMDGFCERNRDVLFMDLIELMQSSELPFIKSLFPENLQADKKGRPTTAGSKIKKQANDLVSTLMKCTPHYIRCIKPNETKKPKDWEESRVKHQVEYLGLKENIRVRRAGYAYRRVFQKFLQRYAILTKATWPVWRGDEKQGVLHLLQSVNMDSDQFQLGRSKVFIKAPESLFLLEEMRERKYDGYARVIQKTWRKFVARKKYVQMREEASDLLLNKKERRRNSINRNFIGDYIGMEERPELQQFVGKREKIDFADTVTKYDRRFKGVKRDLLLTPKCLYLIGREKVKQGPDKGVVKEVLKRRIEVERILSVSLSTMQDDIFILHEQEYDSLLESVFKTEFLSLLAKRYEEKTQKQLPLKFSNTLELKLKKENWGPWSAGGSRQVQFHQGFGDLAILKPSNKVLQVSIGPGLPKNSRPTRRNTVTSRGYPGGTKNNYPMRAAPAPPGCHQNGVIRNQFVPPPHAFGNQRSNQKSLYTSMARPPLPRQQSTGSDRLSQTPESLDFLKVPDQGVAGVRRQTSSRPPPAGGRPKPQPKPKPQVPQCKALYAYDAQDTDELSFNANDIIDIIKEDPSGWWTGRLRGKQGLFPNNYVTKI
With B3, the binding entry in experiment [2] is recorded as “binds”.

B4: autophagy-related gene 7 (Atg7), endogenous (protein, UniProt Q9D906 1-698)
chain: MGDPGLAKLQFAPFNSALDVGFWHELTQKKLNEYRLDEAPKDIKGYYYNGDSAGLPTRLTLEFSAFDMSASTPAHCCPAMGTLHNTNTLEAFKTADKKLLLEQSANEIWEAIKSGAALENPMLLNKFLLLTFADLKKYHFYYWFCCPALCLPESIPLIRGPVSLDQRLSPKQIQALEHAYDDLCRAEGVTALPYFLFKYDDDTVLVSLLKHYSDFFQGQRTKITVGVYDPCNLAQYPGWPLRNFLVLAAHRWSGSFQSVEVLCFRDRTMQGARDVTHSIIFEVKLPEMAFSPDCPKAVGWEKNQKGGMGPRMVNLSGCMDPKRLAESSVDLNLKLMCWRLVPTLDLDKVVSVKCLLLGAGTLGCNVARTLMGWGVRHVTFVDNAKISYSNPVRQPLYEFEDCLGGGKPKALAAAERLQKIFPGVNARGFNMSIPMPGHPVNFSDVTMEQARRDVEQLEQLIDNHDVIFLLMDTRESRWLPTVIAASKRKLVINAALGFDTFVVMRHGLKKPKQQGAGDLCPSHLVAPADLGSSLFANIPGYKLGCYFCNDVVAPGDSTRDRTLDQQCTVSRPGLAVIAGALAVELMVSVLQHPEGGYAIASSSDDRMNEPPTSLGLVPHQIRGFLSRFDNVLPVSLAFDKCTACSPKVLDQYEREGFTFLAKVFNSSHSFLEDLTGLTLLHQETQAAEIWDMSDEETV
Regarding B4, the binding entry in experiment [2] is recorded as “binds”.
